# Screening data

Source: PubChem BioAssay AID504749 (NCATS, 2011).

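Malaria parasite (P. falciparum) lines kept in red blood cells; parasite DNA is measured by SYBR Green fluorescence after lysis, 72 h after compound addition.
Each compound was titrated across a series from about 0.000037 to 29 µM.
The number is the fitted AC50, the concentration giving a half-maximal change in signal; a lower value means higher potency, whether the curve shows a decrease or an increase.
Calls follow the curve class and fit quality: every row here is inconclusive, covering signal-raising curves and weak, poorly fitted, partial or highest-dose-only inhibition curves.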

Values are in µM.
Every entry below has the call inconclusive.
These entries are mostly ones the record files as inconclusive; other results of the assay are not listed here.
Potencies fitted to partial, single-point or poorly fitting curves are rough.

* O=C(c1ccc(F)cc1)C1CCN(CCn2c(=S)[nH]c3ccccc3c2=O)CC1 [FAB9] | fitted potency 11.22 µM (inhibitor, single point)
* Cc1cc(C)c(NC(=O)CN(CC(=O)O)CC(=O)O)c(C)c1Br [TAB113] | fitted potency 3.981 µM (inhibitor, single point)
* Cc1cc(C)c(NC(=O)CN(CC(=O)O)CC(=O)O)c(C)c1Br [TAB165] | fitted potency 3.981 µM (inhibitor, single point)
* CC(C)NCC(O)COc1ccccc1-n1cccc1 (stereo unspecified) [ICS] | fitted potency 3.981 µM (inhibitor, single point)
* CC(C)NCC(O)COc1ccccc1-n1cccc1 (stereo unspecified) [DIV14] | fitted potency 0.9528 µM (inhibitor, partial curve, poor fit)
* CC(C)NCC(O)COc1ccccc1-n1cccc1 (stereo unspecified) [CP297] | fitted potency 4.256 µM (inhibitor, single point)
* CC(C)NCC(O)COc1ccccc1-n1cccc1 (stereo unspecified) [PC15] | fitted potency 3.162 µM (inhibitor, partial curve)
* CC(C)NCC(O)COc1ccccc1-n1cccc1 (stereo unspecified) [Dd2] | fitted potency 3.548 µM (inhibitor, single point)
* CC(C)NCC(O)COc1ccccc1-n1cccc1 (stereo unspecified) [CP237] | fitted potency 3.162 µM (inhibitor, single point)
* CC(C)NCC(O)COc1ccccc1-n1cccc1 (stereo unspecified) [TAB109] | fitted potency 3.981 µM (inhibitor, single point)
* CC(C)NCC(O)COc1ccccc1-n1cccc1 (stereo unspecified) [CP260] | fitted potency 12.59 µM (inhibitor, single point)
* COc1ccccc1N1CCN(CC(O)COc2cccc3ccccc23)CC1 (stereo unspecified) [GB4] | fitted potency 19.01 µM (inhibitor, single point)
* COc1ccccc1N1CCN(CC(O)COc2cccc3ccccc23)CC1 (stereo unspecified) [DIV17] | fitted potency 13.46 µM (inhibitor, single point)
* COc1ccccc1N1CCN(CC(O)COc2cccc3ccccc23)CC1 (stereo unspecified) [ICS] | fitted potency 17.78 µM (inhibitor, single point)
* COc1ccccc1N1CCN(CC(O)COc2cccc3ccccc23)CC1 (stereo unspecified) [TAB113] | fitted potency 12.59 µM (inhibitor, single point)
* COc1ccccc1N1CCN(CC(O)COc2cccc3ccccc23)CC1 (stereo unspecified) [DIV14] | fitted potency 19.01 µM (inhibitor, single point)
* COc1ccccc1N1CCN(CC(O)COc2cccc3ccccc23)CC1 (stereo unspecified) [W2] | fitted potency 10.69 µM (inhibitor, single point)
* COc1ccccc1N1CCN(CC(O)COc2cccc3ccccc23)CC1 (stereo unspecified) [TAB165] | fitted potency 17.78 µM (inhibitor, single point)
* O=C(c1ccc(OCCN2CCCCC2)cc1)c1c(-c2ccc(O)cc2)sc2cc(O)ccc12 [CP266] | fitted potency 19.01 µM (inhibitor, single point)
* O=C(c1ccc(OCCN2CCCCC2)cc1)c1c(-c2ccc(O)cc2)sc2cc(O)ccc12 [DIV30] | fitted potency 16.94 µM (inhibitor, single point)
* O=C(c1ccc(OCCN2CCCCC2)cc1)c1c(-c2ccc(O)cc2)sc2cc(O)ccc12 [CP252] | fitted potency 14.13 µM (inhibitor, single point)
* O=C(c1ccc(OCCN2CCCCC2)cc1)c1c(-c2ccc(O)cc2)sc2cc(O)ccc12 [CP192] | fitted potency 19.01 µM (inhibitor, single point)
* O=C(c1ccc(OCCN2CCCCC2)cc1)c1c(-c2ccc(O)cc2)sc2cc(O)ccc12 [CP325] | fitted potency 13.46 µM (inhibitor, single point)
* O=C(c1ccc(OCCN2CCCCC2)cc1)c1c(-c2ccc(O)cc2)sc2cc(O)ccc12 [PAD] | fitted potency 11.22 µM (inhibitor, single point)

Some entries from above, unchanged:

Compound	condition	fitted potency (µM)	curve as filed
O=C(c1ccc(OCCN2CCCCC2)cc1)c1c(-c2ccc(O)cc2)sc2cc(O)ccc12	PAD	11.22	inhibitor, single point
O=C(c1ccc(OCCN2CCCCC2)cc1)c1c(-c2ccc(O)cc2)sc2cc(O)ccc12	CP266	19.01	inhibitor, single point